According to publication PMC4863248:
Results are given in words; binding and its absence hold for the method and conditions named. In cells and extracts the contact can be indirect. Sequences can lack the tags named with a protein.

Target: T1, cMyc-Rv0247c (putative succinate dehydrogenase subunit B1) (Mycobacterium tuberculosis) (UniProt O53669)
T1 sequence: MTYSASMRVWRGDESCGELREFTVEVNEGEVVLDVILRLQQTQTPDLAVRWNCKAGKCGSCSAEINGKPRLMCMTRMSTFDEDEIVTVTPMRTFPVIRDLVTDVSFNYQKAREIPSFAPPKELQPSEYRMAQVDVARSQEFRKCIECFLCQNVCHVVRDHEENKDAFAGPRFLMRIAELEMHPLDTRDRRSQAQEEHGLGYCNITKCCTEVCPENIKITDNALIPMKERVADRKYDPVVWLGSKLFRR
Experiment: co-IP

native YidC of M. smegmatis was tested, and the binding was “no binding”.
